The whole screen tested about 340,000 compounds, of which about 170 (0.05%) were called active. This list was built around the results that the source calls inconclusive (neither active nor inactive); the mix of calls is not that of the screen. Calls come from the whole dose curve; as a rule, active = well fitted inhibition curve with a large enough effect in the signal ratio, with a control signal flat (not every such curve was filed as active); inconclusive = small, poorly fitted or top-dose-only effect, or effect the other way, or a change in a side signal; inactive = flat fitted curve, though single readings scatter; the % refers to the signal ratio. Potencies of inconclusive entries are doubtful fits and often do not repeat.
test: qHTS Assay to Find Inhibitors of Chronic Active B-Cell Receptor Signaling; conditions: ABC-DLBCL IkBa-CBG/CBR reporter, luminescence ratio (green luciferase fused to IkBa over red control in TMD8 lymphoma cells), 4 h; activity change, negative = inhibition: at 46.1 µM (top of the series);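 for activity change, negative = inhibition: plate controls were basal doxycycline-induced cells for no effect and cells given 10 µM MG132 for full effect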
How it was run: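 Compounds up to 46 uM were incubated four hours with TMD8 cells whose green CBG68 luciferase is fused to IkappaBalpha; red CBR luminescence normalised the signal, and concentration-effect curves were fitted to fusion, red and ratio data.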
Potency is the fitted concentration of half-maximal effect.

SMILES	activity change, negative = inhibition	Potency
Cc1ccc(C(=O)Oc2ccc(C(=S)N3CCOCC3)cc2)cc1	inconclusive: 1.69%	–
O=C(CSc1nnc(-c2ccncc2)o1)Nc1cc(F)ccc1F	–	inconclusive: 25.9 µM [falling, partial curve]
COC(=O)c1ccc2nc(NC(=O)CCS(=O)(=O)c3ccccc3)sc2c1	–	inconclusive: 2.51 µM [falling, full curve, poor fit]
COCC(=O)N(Cc1ccccc1)c1ccccn1	inconclusive: -2.33%	–
Oc1cnc2ccccc2c1CN1CCOCC1	inactive: 1.9%	–
O=C(N/N=C/C(Br)=C/c1ccccc1)c1n[nH]c2c1CCC2	–	inconclusive: 10.3 µM [falling, partial curve, poor fit]
COc1cc(OC)c(NC(=O)CC(C)=O)cc1Cl	–	inconclusive: 18.4 µM [falling, partial curve, poor fit]
COc1ccc(/C=N/N=C2\SC(CC(=O)O)C(=O)N2c2ccccc2)c(OC)c1 (stereo unspecified)	inconclusive: 6.14%	–
COc1cc(/C=C2/S/C(=N/S(=O)(=O)Cc3ccccc3)NC2=O)c([N+](=O)[O-])cc1OC	–	inconclusive: 14.1 µM [rising, partial curve, poor fit]
C/C(=N\NC(=O)c1ccccc1O)C1C(=O)c2ccccc2C1=O	–	inconclusive: 25.9 µM [rising, single point]
COc1cccc(-c2noc(CCCC(=O)Nc3ccc(C(N)=O)cc3)n2)c1	–	inconclusive: 2.82 µM [rising, full curve]
O=C(CN1CCN(c2ccc(O)cc2)CC1)Nc1cc(S(=O)(=O)N2CCCC2)ccc1Cl	inactive: 10.4%	–
COc1ccc(Cl)cc1NC(=O)CSc1nc(C)cc(C)n1	inconclusive: 7.47%	–
CC(=O)Nc1ccc(S(=O)(=O)Nc2nc3ccccc3s2)cc1	inconclusive: -0.783%	–
COCc1cc(C)nc(OCC(=O)N/N=C/c2cccc(OC)c2)c1C#N	inactive: -2.82%	–
COc1cccc(NC(=O)c2nc(S(C)(=O)=O)ncc2Cl)c1	–	inconclusive: 3.55 µM [rising, full curve, poor fit]
Cc1ccc2c(c1)[C@@H]1[C@H](CO2)[C@H](c2ccccc2)[C@@]2(C)C(=O)N[C@H](C)C(=O)N12	inactive: -0.622%	–
COc1ccc2nc(NC(=O)C(NS(=O)(=O)c3cccs3)C(C)C)sc2c1 (stereo unspecified)	inconclusive: -0.189%	–
COc1ccc(N(CC(=O)NCCSc2ccccn2)S(=O)(=O)c2ccccc2)cc1Cl	inconclusive: -4.17%	–
O=C(Nc1ccccc1Cl)C1CCN(Cc2cnn(-c3ccccc3)c2-n2cccc2)CC1	inconclusive: -18.9%	–
NNC(=S)Nc1ccc(C(F)(F)F)cc1Cl	inactive: -0.289%	–
Nc1c(C(=O)NCc2ccc3c(c2)OCO3)nnn1CC(=O)Nc1ccc(Br)cc1	inactive: 25.7%	–
COc1cccc(-c2nnc(NC(=O)c3ccc(Cl)s3)o2)c1	inconclusive: -12.3%	–
CC1(C)CC(=O)c2cnc(N3CCc4ccccc43)nc2C1	inactive: 9.71%	–
Cc1cc(-c2ccccc2)nc(SCC(=O)c2cccc([N+](=O)[O-])c2)n1	inactive: 4.09%	–
COc1cc(C(=O)NCC(=O)N/N=C/c2ccc(OC(=O)c3ccco3)cc2)cc(OC)c1OC	–	inconclusive: 20 µM [falling, single point]

Grouped by structure, the entries above with a nitro group on carbon
SMILES	activity change, negative = inhibition	Potency
COc1cc(/C=C2/S/C(=N/S(=O)(=O)Cc3ccccc3)NC2=O)c([N+](=O)[O-])cc1OC	–	inconclusive: 14.1 µM [rising, partial curve, poor fit]
Cc1cc(-c2ccccc2)nc(SCC(=O)c2cccc([N+](=O)[O-])c2)n1	inactive: 4.09%	–

The results go on.

SMILES	activity change, negative = inhibition	Potency
COc1ccccc1NC(CC(=O)c1ccccc1)C(=O)OCC(=O)c1ccc(F)cc1 (stereo unspecified)	–	inconclusive: 18.4 µM [falling, partial curve]
COc1ccc(OC)c(-n2c(SCC(=O)NCc3ccco3)nnc2-c2c[nH]c3ccccc23)c1	–	inconclusive: 25.1 µM [falling, single point]
O=C(NC1CCCCC1)C1CC(=O)N(c2ccccc2)C1 (stereo unspecified)	inactive: 5.46%	–
CN(C)CCCN(C(=O)c1ccco1)c1nc2ccc(Br)cc2s1	inconclusive: 3.99%	–
Cc1cccc(-n2c(C)n[nH]c2=S)c1	inactive: 0.133%	–
CCN(CC)c1ccc(NC(=O)c2ccc3c(c2)OCO3)c(C)c1	inactive: -2.63%	–
CCc1ccc(NC(=O)CC2C(=O)N(c3ccc(C)cc3)C(=O)N2CCc2ccncc2)cc1 (stereo unspecified)	inactive: 0.846%	–
N#Cc1cc2c(nc1SCC(O)CS(=O)(=O)Cc1ccccc1)CCCC2 (stereo unspecified)	inconclusive: -29.7%	–
COc1ccc(NC(=O)Oc2cc(C)ccc2C(C)C)cc1	inconclusive: 0.827%	–
CC(=O)c1ccc(NC(=O)CSC(=S)N2CCCC2)cc1	–	inconclusive: 25.1 µM [falling, single point]
COc1ccc(CCN(C)Cc2ccc(OC)c(OCc3ccccc3)c2)cc1OC	inactive: -1.69%	–
CCc1cc2c(=O)c(-c3nc4ccccc4n3C)c(C)oc2c(CN2CCCCC2)c1O	inactive: 0.44%	–
CC(C)(C)c1ccc(C(=O)Nc2cccc3ncccc23)cc1	inconclusive: -18.1%	–
CC(=O)Nc1cccc(NC(=S)Nc2cccc(Cl)c2Cl)c1	inactive: 2.75%	–
O=S(=O)(c1ccc2ccccc2c1)N1CCN(Cc2ccccn2)CC1	inactive: 4.47%	–
Cn1cccc1/C=N/NC(=O)c1sc2ccccc2c1Cl	–	inconclusive: 11.2 µM [falling, partial curve, poor fit]
Cc1ccc(S(=O)(=O)c2nc(-c3ccco3)oc2N2CCC(C)CC2)cc1	inactive: -1.27%	–
CCOC(=O)C1(CC)NC(c2ccc(OC)c(OC)c2)C2C(=O)N(c3cccc(C(C)=O)c3)C(=O)C21 (stereo unspecified)	inactive: -0.159%	–
CCOC(=O)NC(=O)CSc1nnc(SCCC(=O)O)s1	–	inconclusive: 4.61 µM [falling, single point]
CCc1ccc(C2=NN(c3ccc(S(N)(=O)=O)cc3)C(c3ccc(F)cc3)C2)cc1 (stereo unspecified)	inactive: 0.382%	–
COc1ccccc1-n1c(SCC(=O)O)nc2c(sc(=S)n2-c2ccc(C)c(C)c2)c1=O	inconclusive: -0.0234%	–
Cc1ccc(CCNC(=O)c2ccc(CNS(=O)(=O)c3ccc(C)cc3)cc2)cc1	inconclusive: 1.93%	–
COc1ccc(NC(=O)N(Cc2cccs2)Cc2cc3cc4c(cc3[nH]c2=O)OCO4)cc1	inactive: 1.31%	–
COc1cc(CNCCc2ccccc2)cc(Br)c1OCC(=O)Nc1ccccc1C	inactive: 0.708%	–
COC(=O)[C@@H]1C[C@H]2CC[C@H](O)C[C@H]2N1Cc1ccccc1OC(=O)c1cccs1	inconclusive: 3.93%	–

From PubChem BioAssay AID493014 (National Center for Advancing Translational Sciences (NCATS), 2011)
